± gives the uncertainty stated by the source. The list shows a part of the results.
How the values were obtained:
[1] = tested on: Acinetobacter baumannii Mahidol; test: percent growth relative to DMSO-treated control; higher = less growth inhibition; conditions: 10 µM; 18 h
[2] = tested on: Acinetobacter baumannii Naval-81; test: as above; conditions: 10 µM; 18 h

Structure (SMILES) | percent growth [1] | percent growth [2]
CCOc1ccc(-c2nc(NC(=O)CS(=O)(=O)c3ccccc3)sc2C)cc1 | 70.5 ± 24% | 85.8 ± 12%
COC(=O)C1=C(C)NC(C)=C(C(=O)OC(C)C)C1c1cccc2nonc12 (stereo not given) | 57.4 ± 31% | 80.9 ± 16%
CNC1C(OC2C(OC3C(O)C(O)C(NC(=N)N)C(O)C3NC(=N)N)OC(C)C2(O)C=O)OC(CO)C(O)C1O (stereo not given) | 136 ± 40% | 93.3 ± 8.9%
CN1CCN(S(=O)(=O)c2ccc(-c3ccc4c(Nc5ccc6nn[nH]c6c5)ccnc4c3)cc2)CC1 | 62.8 ± 30% | 83 ± 1.1%
NCCC(O)C(=O)N[C@@H]1C[C@H](N)[C@@H](OC2O[C@H](CN)[C@@H](O)[C@H](O)[C@H]2O)[C@H](O)C1OC1O[C@H](CO)[C@@H](O)[C@H](N)[C@H]1O (stereo not given in full) | 84.7 ± 9.8% | 94.1 ± 21%
c1ccc(-c2cc(N3CCCCC3)c3ccccc3n2)nc1 | 97.2 ± 37% | 98.8 ± 29%
Cc1nc(-c2ccccn2)nc(N(C)CCc2ccccc2)c1Cl | 100 ± 8.2% | 73.5 ± 17%
CCCn1c(NC(=O)c2ccc3ccccc3n2)nc2ccccc21 | 84.8 ± 13% | 99.7 ± 9.3%
CC[P](CC)(CC)=[Au][S][C@H]1O[C@@H](COC(C)=O)[C@H](OC(C)=O)[C@@H](OC(C)=O)[C@@H]1OC(C)=O | 32.6 ± 30% | 28.2 ± 26%
O[C@@H](c1cc(C(F)(F)F)nc2c(C(F)(F)F)cccc12)[C@H]1CCCCN1 | 73.3 ± 30% | 82.8 ± 12%
CC(=O)N(CCN(C(=O)c1ccc(F)cc1)c1ccccc1)c1ccccc1 | 103 ± 9.2% | 89.1 ± 5.8%
Nc1nc(N)c2c3c(sc2n1)CN(Cc1ccccc1)CC3 | 94.4 ± 4.2% | 85 ± 9.8%
COc1cccc(-n2nnnc2S(C)(=O)=O)c1 | 99.9 ± 2.4% | 79.91 ± 0.67%
CN1CCCN(C(c2ccccc2)c2ccc(Cl)cc2)CC1 (stereo not given) | 96.2 ± 6.7% | 102 ± 30%
O=C(Nc1nnc(-c2ccc(Cl)cc2)o1)c1cccc(C(F)(F)F)c1 | 62.9 ± 42% | 57.6 ± 23%
CC(=O)N1CCc2cc3nc(C)cc(C)c3cc21 | 56.3 ± 50% | 98 ± 10%
CCc1c(C)nc(-n2nc(C)cc2NC(=O)c2ccccc2SC)[nH]c1=O | 104 ± 7% | 84.2 ± 18%
COc1ccc(OC(C)C(=O)Nc2ccc(Cl)cc2C)cc1 (stereo not given) | 101 ± 12% | 92.7 ± 7.4%
N=C(N)c1ccc(OCCCCCOc2ccc(C(=N)N)cc2)cc1 | 60.2 ± 52% | 66.9 ± 32%
c1ccc(Oc2ccc(-c3cc(C4CCOCC4)[nH]n3)cc2)cc1 | 92.3 ± 15% | 63.2 ± 21%
OCc1ccc(-c2cncc(Nc3cccc(Cl)c3)c2)cc1 | 96.3 ± 8.6% | 82.1 ± 9.6%
c1ccc(-c2[nH]c3ccccc3c2C(c2ccccn2)N2CCCC2)cc1 (stereo not given) | 106 ± 26% | 109 ± 32%
O=C(Nc1nnc(-c2ccc(Cl)s2)o1)c1ccc(Cl)s1 | 91 ± 18% | 80.7 ± 11%

A few values from the list.
Value for CC(=O)N(CCN(C(=O)c1ccc(F)cc1)c1ccccc1)c1ccccc1 under percent growth [2]: 89.1 ± 5.8%
Value for CCOc1ccc(-c2nc(NC(=O)CS(=O)(=O)c3ccccc3)sc2C)cc1 under percent growth [2]: 85.8 ± 12%
Value for O[C@@H](c1cc(C(F)(F)F)nc2c(C(F)(F)F)cccc12)[C@H]1CCCCN1 under percent growth [2]: 82.8 ± 12%

Later entries.

Structure (SMILES) | percent growth [1] | percent growth [2]
Nc1ncc(-c2cn[nH]c2)cc1-c1nc2cc(Cl)cnc2[nH]1 | 86.8 ± 7.2% | 96.5 ± 7.1%
Cc1ccc2c(c1C)NC(=O)C21NN=C(c2ccccc2)S1 (stereo not given) | 52.3 ± 36% | 87.3 ± 8.5%
CC(=O)NCC1CN(c2ccc(-c3ccc(CNCc4cn[nH]n4)cc3)c(F)c2)C(=O)O1 (stereo not given) | 92 ± 12% | 90.5 ± 5.9%
FC(F)(F)c1nnc2ccc(Cl)nn12 | 55.8 ± 51% | 85.5 ± 18%
COc1ccc(N(CCc2cccc(C)n2)C(=O)C2CCCCC2)cc1 | 98.2 ± 4.3% | 92.3 ± 7%
O=C(CN1CCOCC1)Nc1ccc2ncnc(Nc3ccc(OCc4cccc(F)c4)c(Cl)c3)c2c1 | 88.6 ± 11% | 87.8 ± 9%
O=C(Nc1cccnc1)c1c(O)c2cccc3c2n(c1=O)CC3 | 77.8 ± 34% | 112 ± 53%
CC(c1cc(Cl)cc(Cl)c1)N(C)c1ncc2c(N)nc(N)nc2n1 (stereo not given) | 107 ± 24% | 98.7 ± 14%
O=C(NCCc1c[nH]c2ccccc12)c1cc2ccccc2oc1=O | 88 ± 32% | 87.5 ± 5.8%
CN(C)c1cc(NC(=O)Nc2ccccc2)c2ccccc2n1 | 111 ± 16% | 91 ± 64%
CC(C)c1ncc(-c2ccncc2)c([C@H]2CC[C@H](CNC(=O)c3cccnc3)CC2)n1 | 59.9 ± 30% | 87.5 ± 26%
COc1cncc(-c2cncc(N3CCN(c4ccncc4)CC3)n2)c1 | 87.3 ± 4.8% | 84.3 ± 5.1%
COc1cccc(OC)c1C(=O)Nc1ccc(Cl)c(-c2nc3ccccc3s2)c1 | 87.3 ± 12% | 80.7 ± 53%
Cc1ccc(S(=O)(=O)n2cc(-c3ccnc(N)c3)c3cc(Br)cnc32)cc1 | 92.8 ± 9.5% | 83.5 ± 6.5%
COc1ccc(OC)c(NCc2ccc3nc(N)nc(N)c3c2Cl)c1 | 19.4 ± 56% | 0%
CC(C)(C)n1nc(-c2ccccc2)c2c(N)ncnc21 | 93.3 ± 5% | 102 ± 30%
CCc1nc2ccc(Cl)cn2c1C(=O)NCc1ccc(N2CCC(c3ccc(OC(F)(F)F)cc3)CC2)cc1 | 56.3 ± 33% | 80.7 ± 15%
CC(C)NCC(=O)Nc1cccc(C(=O)Nc2cccc(C(F)(F)F)c2)c1 | 102 ± 10% | 67.9 ± 25%
c1ccc(Oc2ccc(-c3cncc(-c4ccc5[nH]ccc5c4)n3)cc2)cc1 | 99.8 ± 9% | 86.2 ± 4.1%
N=C(N)Nc1ccc(-c2ccc(-c3ccc(NC(=N)N)cc3Cl)o2)c(Cl)c1 | 52.1 ± 24% | 54.6 ± 37%
COc1ccc(-c2cc(NC(=O)c3ccc(F)cc3Cl)ccc2OC)cc1 | 108 ± 12% | 73.2 ± 9%
CNC(=O)C1Cc2ccccc2N1C(=O)Cc1ccc(F)cc1 (stereo not given) | 91 ± 12% | 82.1 ± 17%
O=C(C1CCCCC1)N1CC(=O)N2CCc3ccccc3C2C1 (stereo not given) | 59.7 ± 29% | 114 ± 46%

Structure (SMILES) | percent growth [1] | percent growth [2]
Cc1cc(Cl)ccc1NC(=O)CCc1ccc(S(=O)(=O)NCC(C)C)cc1 | 105 ± 11% | 103 ± 26%
Cc1ccc2[nH]c(C3CCCNC3)c(-c3ccncc3)c2c1 (stereo not given) | 106 ± 17% | 102 ± 19%
Cc1ccc2nc(Cl)c(CNCc3cccs3)cc2c1 | 80.9 ± 30% | 79.9 ± 9.3%
COC(=O)c1c(NC(=O)c2c(F)c(F)c(F)c(F)c2F)sc2c1CCCCC2 | 111 ± 18% | 93.3 ± 14%
CCCS(=O)(=O)N1CCC(CO)(Cc2ccccc2C(F)(F)F)CC1 | 93.2 ± 4.4% | 88.8 ± 8.9%
CO[C@@H](C(=O)N1Cc2[nH]nc(NC(=O)c3ccc(N4CCN(C)CC4)cc3)c2C1)c1ccccc1 | 64.1 ± 34% | 80.7 ± 11%
C[C@H]1c2cccc(O)c2C(=O)C2=C(O)[C@]3(O)C(=O)C(C(N)=O)=C(O)[C@@H](N(C)C)[C@@H]3[C@@H](O)[C@@H]21 | 0.00386 ± 0.4% | 0%
CC(C)(C)c1cnc(NC(=O)c2ccccc2O)s1 | 105 ± 6.9% | 84.6 ± 28%
COc1cccc(-c2cc3c(Nc4cccnc4)nccc3[nH]2)c1 | 101 ± 8.9% | 79.5 ± 44%
CCCCN(CCCC)c1c(C#N)cc(S(=O)(=O)Nc2ccccc2)cc1C#N | 100 ± 10% | 97.4 ± 9.9%
CS(=O)(=O)c1ccc(C(=O)N(CC2CCCO2)c2nc3ccccc3s2)cc1[N+](=O)[O-] (stereo not given) | 143 ± 36% | 70.3 ± 19%
Cc1ccc(NC(=O)CC2COc3ccccc3O2)cc1Cl (stereo not given) | 102 ± 9.8% | 84 ± 8.7%
Cc1nnc(NC(=O)c2cn(-c3ccccc3)nc2-c2ccccc2C)o1 | 115 ± 49% | 88 ± 28%
CC(=O)NC[C@H]1CN(c2ccc(N3CCSCC3)c(F)c2)C(=O)O1 | 62.2 ± 40% | 98.2 ± 22%
CCOc1ccc2cc(-c3nn(CC4CCN(C)CC4)c4ncnc(N)c34)ccc2c1 | 77.3 ± 57% | 85.98 ± 0.33%
OCCc1ccc(Nc2nccc(-c3nnc4ccccn34)n2)cc1 | 101 ± 6.3% | 89.3 ± 10%
COc1ccc(-c2cnc3ccc(N4CCCC4)nn23)cc1OC | 84.1 ± 14% | 99 ± 7.7%
Cc1ccc(S(=O)(=O)Nc2ccc(CN3CCN(C(=O)c4cccc(C#N)c4)CC3)cc2)cc1 | 95.7 ± 9.9% | 97.1 ± 14%
Cc1cc2ccccc2n1CC(=O)N1CC(C(=O)N2CCCCC2)Oc2ccccc21 (stereo not given) | 79.5 ± 30% | 108 ± 33%
Cc1cc(C)c2cc(C(=O)NC3CCCCCCC3)[nH]c2c1 | 84.9 ± 25% | 97.9 ± 4.1%
COc1cccn2c(C(=O)N3CCCCC3)c(C(F)(F)F)nc12 | 92.3 ± 12% | 89.1 ± 9.9%
CN1CCN(CCCOc2ncc(Nc3ncc(-c4ccc(C(F)(F)F)c(F)c4)nc3C(N)=O)cn2)CC1 | 85.4 ± 11% | 96.4 ± 24%
CCCCS(=O)(=O)Nc1ccc2cnn(C)c2c1 | 89.8 ± 8.6% | 101 ± 14%

Another view of part of the listing above.
Cc1ccc(S(=O)(=O)n2cc(-c3ccnc(N)c3)c3cc(Br)cnc32)cc1
  percent growth [1]: 92.8 ± 9.5%
  percent growth [2]: 83.5 ± 6.5%
COc1ccc(OC)c(NCc2ccc3nc(N)nc(N)c3c2Cl)c1
  percent growth [1]: 19.4 ± 56%
  percent growth [2]: 0%
CC(C)(C)n1nc(-c2ccccc2)c2c(N)ncnc21
  percent growth [1]: 93.3 ± 5%
  percent growth [2]: 102 ± 30%

Later entries

Structure (SMILES) | percent growth [1] | percent growth [2]
O=C(NC1CCCCC1)N1CCN(Cc2ccc3c(c2)OCO3)CC1 | 83.8 ± 20% | 87 ± 1.6%
CC(C)C(C(=O)Nc1ccc(S(=O)(=O)N(C)C)cc1)c1ccc(Cl)cc1 (stereo not given) | 105 ± 23% | 71.2 ± 34%
CC1(C)Cc2c(c(N3CCOCC3)nc3snc(Br)c23)CO1 | 97.3 ± 6.7% | 83.7 ± 16%
CCOc1ccccc1C(=O)Nc1cccc(-c2nc3ncccn3c2C)c1 | 93.5 ± 3.8% | 97.7 ± 13%
N#CCN(CCCCN1CCN(c2ccc(F)cc2)CC1)C(=O)OCc1ccccc1 | 78.6 ± 52% | 84.8 ± 7.9%
CN1CCN(c2nccc3nc(-c4ccc(F)c(F)c4)[nH]c23)CC1 | 88.3 ± 9.4% | 93.8 ± 13%
COc1ccc2nc(C)cc(OCC(=O)Nc3ccccc3OC)c2c1 | 84.6 ± 20% | 102 ± 11%
CC(C)(C)OC(=O)N1CCC(Cn2nc(-c3cnc4ccccc4c3)c3c(N)ncnc32)CC1 | 90 ± 19% | 93.7 ± 8.9%
Cc1nc(-c2cccc(NCc3ccccc3)c2)[nH]c1C | 100 ± 4.3% | 69.3 ± 53%
CCc1ccc(C(NCc2nc(N)nc(N(C)C)n2)C(C)C)cc1 (stereo not given) | 110 ± 24% | 95.1 ± 20%
COc1cc(-c2cc(-c3ccc(S(C)(=O)=O)cc3)cnc2N)ccc1O | 91.4 ± 8.7% | 83.5 ± 13%
O=C1Nc2ccc(Br)cc2C12NCCc1c2[nH]c2ccccc12 (stereo not given) | 84.9 ± 14% | 130 ± 52%
COc1ccc(Cn2cnc3c(-c4ccco4)nc(Cl)nc32)cc1 | 104 ± 22% | 109 ± 11%
CN1CCC(c2cc(-c3ccncc3)c(-c3ccc(F)cc3)[nH]2)CC1 | 84.2 ± 23% | 91 ± 12%
c1cc(C2=NCCN2)cc(-c2cc(-c3ccc(C4=NCCN4)cc3)no2)c1 | 97.3 ± 8.3% | 93.4 ± 1.3%
CC1=Nc2ccc(Cl)cc2C(c2ccccc2)N1CCNC(=O)CN(C)C (stereo not given) | 90.6 ± 5.9% | 95.8 ± 6.3%
Cc1cc(O)nc(-n2nc(C)cc2C)n1 | 96.7 ± 1.8% | 84.4 ± 9.9%
CC1CCCN(C(=O)C(C)Nc2cc(Cl)ccc2N2CCOCC2)C1 (stereo not given) | 94.2 ± 3.3% | 96.8 ± 6%
O=C(c1ccc(NCCO)cc1)C1C[C@H]1c1ccc(Cl)cc1 (stereo not given in full) | 87.7 ± 15% | 85.7 ± 12%
Cc1cc(NCC(C)C)c2n[nH]c(-c3ccccc3)c2n1 | 89.9 ± 5% | 102 ± 5.1%
C[C@H](C(N)=O)N1CCCC[C@@H]1c1ccc(OCc2cccc(F)c2)cc1 | 98.4 ± 12% | 87.9 ± 29%

— the supplement of paper PMC6821926, “Diaminoquinazoline MMV675968 from Pathogen Box inhibits Acinetobacter baumannii growth through targeting of dihydrofolate reductase” (Scientific Reports, 2019)
